Among the data in doi:10.1101/2024.02.16.580630 are binding values, retold here.

Sequences of proteins named here, by UniProt entry; tags and fusion partners are left off. A change or cut given only in a name is not applied to a line headed by its entry.
UniProt P53350, whole entry: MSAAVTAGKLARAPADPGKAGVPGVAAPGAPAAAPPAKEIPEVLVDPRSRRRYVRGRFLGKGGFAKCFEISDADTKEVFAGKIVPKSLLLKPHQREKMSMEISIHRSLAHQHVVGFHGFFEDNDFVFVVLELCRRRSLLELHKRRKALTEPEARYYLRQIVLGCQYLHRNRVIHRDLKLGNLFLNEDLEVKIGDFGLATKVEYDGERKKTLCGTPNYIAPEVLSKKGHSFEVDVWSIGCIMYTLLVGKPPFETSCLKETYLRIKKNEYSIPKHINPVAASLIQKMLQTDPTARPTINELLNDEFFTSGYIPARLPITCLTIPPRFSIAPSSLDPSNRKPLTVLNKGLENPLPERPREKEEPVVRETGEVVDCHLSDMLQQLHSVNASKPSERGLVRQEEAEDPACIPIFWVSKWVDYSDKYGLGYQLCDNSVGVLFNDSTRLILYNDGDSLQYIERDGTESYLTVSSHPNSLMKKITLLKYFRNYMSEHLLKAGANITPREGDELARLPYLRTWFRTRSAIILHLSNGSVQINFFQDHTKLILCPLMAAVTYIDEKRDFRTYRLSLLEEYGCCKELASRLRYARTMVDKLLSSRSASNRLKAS

Assay in all cases: co-IP
For assay [1], the target named is T1, tdTomato-PDHA1 (pyruvate dehydrogenase E1 subunit alpha 1) (UniProt P08559).
T1 sequence: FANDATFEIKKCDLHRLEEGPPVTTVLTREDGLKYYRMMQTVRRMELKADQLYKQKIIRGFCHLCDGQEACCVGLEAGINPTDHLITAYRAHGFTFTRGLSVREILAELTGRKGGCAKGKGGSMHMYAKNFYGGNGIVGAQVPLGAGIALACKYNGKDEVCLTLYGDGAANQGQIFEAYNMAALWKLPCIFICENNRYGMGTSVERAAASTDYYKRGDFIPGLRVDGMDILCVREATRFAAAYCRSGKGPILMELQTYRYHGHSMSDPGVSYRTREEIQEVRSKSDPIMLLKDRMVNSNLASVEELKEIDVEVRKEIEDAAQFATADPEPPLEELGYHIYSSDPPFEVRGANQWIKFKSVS

Another assay addresses T2, HA-PDHA1 wild type (UniProt P08559).
T2 sequence: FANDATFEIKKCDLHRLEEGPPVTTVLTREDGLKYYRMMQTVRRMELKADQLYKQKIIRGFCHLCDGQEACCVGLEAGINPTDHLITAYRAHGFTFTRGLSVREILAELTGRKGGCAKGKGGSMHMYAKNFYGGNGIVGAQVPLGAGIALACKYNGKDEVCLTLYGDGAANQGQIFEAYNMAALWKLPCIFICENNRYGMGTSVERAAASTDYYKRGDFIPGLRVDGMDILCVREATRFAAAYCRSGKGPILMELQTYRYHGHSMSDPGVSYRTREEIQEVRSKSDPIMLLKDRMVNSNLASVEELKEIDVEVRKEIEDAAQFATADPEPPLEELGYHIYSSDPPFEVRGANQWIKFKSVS

A further assay has as its target T3, HA-PDHA1-T57A (UniProt P08559).
T3 sequence: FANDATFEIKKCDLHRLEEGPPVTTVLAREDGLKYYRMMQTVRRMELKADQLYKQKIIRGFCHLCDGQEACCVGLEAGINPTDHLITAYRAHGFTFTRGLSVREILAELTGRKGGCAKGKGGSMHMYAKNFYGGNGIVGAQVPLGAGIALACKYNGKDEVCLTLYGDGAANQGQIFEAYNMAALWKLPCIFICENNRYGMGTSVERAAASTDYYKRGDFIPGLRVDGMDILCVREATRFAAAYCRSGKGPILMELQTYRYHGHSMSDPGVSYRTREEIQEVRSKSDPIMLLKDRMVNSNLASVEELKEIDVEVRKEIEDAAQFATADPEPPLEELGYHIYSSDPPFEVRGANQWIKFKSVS

These are yes or no findings as the source states them, for the method shown. In cells and extracts the contact can be indirect. Some results given as binding are weak or reduced against the parent protein; the word gives no strength. For part of these data: Sequences can lack the tags named with a protein.

Regarding “Flag-PLK1 (polo-like kinase 1) (from UniProt P53350 1-603)”, the binding entry in assay [1] was “binds”.

B1: endogenous PDHB of CrT cells (regulatory subunit of the E1 component of the pyruvate dehydrogenase complex) (protein, UniProt P11177 31-359)
chain: LQVTVRDAINQGMDEELERDEKVFLLGEEVAQYDGAYKVSRGLWKKYGDKRIIDTPISEMGFAGIAVGAAMAGLRPICEFMTFNFSMQAIDQVINSAAKTYYMSGGLQPVPIVFRGPNGASAGVAAQHSQCFAAWYGHCPGLKVVSPWNSEDAKGLIKSAIRDNNPVVVLENELMYGVPFEFPPEAQSKDFLIPIGKAKIERQGTHITVVSHSRPVGHCLEAAAVLSKEGVECEVINMRTIRPMDMETIEASVMKTNHLVTVEGGWPQFGVGAEICARIMEGPAFNFLDAPAVRVTGADVPMPYAKILEDNSIPQVKDIIFAIKKTLNI
As to B1, the binding result with HA-PDHA1 wild type and in the assay with HA-PDHA1-T57A was “binds” in each case.
